## Screening data, single-dose tests

Measurements from “University of Dundee, Small-Polar-MMV Screening Library” (2021), ChEMBL document CHEMBL3988442.

Mtb glucose medium: 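Phenotypic screen: M. tuberculosis growth, glucose 7H9 medium, 3 days; the read-out is not stated. Compounds at 50 µM. Direction is inferred from retests: higher values go with more growth inhibition. About 69,000 compounds were tested under these conditions; 1.1% (about 760) showed 50% or more at least once.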
Mtb cholesterol medium: 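Whole-cell growth test on Mycobacterium tuberculosis, read after 4 days in a medium based on cholesterol and the lipid DPPC; the read-out is not stated. Compounds at 50 µM. The record gives no direction; compounds that gave an IC50 in retests scored well above the rest, so higher reads as more growth inhibition. Of about 69,000 compounds tested this way, about 370 (0.54%) reached 50% or more in at least one test.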

Results are given as percent effect. The record does not define 0% and 100%; most values in the screen are far below 50% and negative numbers occur (in some assays of this library far below -100). Compounds were drawn at random from those tested, without regard to their results. Two or more numbers in one place are separate tests of the same structure; such repeats can differ widely.

SMILES,Mtb glucose medium,Mtb cholesterol medium
O=C(NCCCn1cccn1)C1CCC(=O)N(CC2CCCCC2)C1 (centres unmarked),3.127,4.792 and -16.2
OCCn1ncc2c1CN(CC1CCOc3ccccc3C1)C2 (centres unmarked),2.262,-10.22 and -2.423
Cc1nnc2n1CCN(C(=O)CN1C(=O)CSc3ccccc31)C2,3.656 and -1.103,-11.69
CC(C)(C)NC(=O)CNc1ccc(Br)cn1,15.27,12.46
CN(Cc1ccc2c(c1)OCO2)C(=O)c1ccc(=O)n(C)c1,-45.16,-16.68
Cc1cnn(Cc2cc(F)ccc2F)c1NC(=O)CNC(=O)C1CC1,-10.54,-3.026
Cc1nc(C)n(CC2CCCN2CC(=O)Nc2c(C)n[nH]c2C)n1 (centres unmarked),19.7,18.16
CCOc1cccc(CSC(C)c2nc(C)no2)n1 (centres unmarked),18.78,19.5
Cc1oncc1NS(=O)(=O)c1c[nH]c2ncccc12,2.964,-5.677
CCC[C@@H]1CN(C(=O)c2cc3ccccc3cc2O)C[C@H]1N(C)C,-45.26,-24.07
c1ccc(Cn2cc(CNC3CCc4ncnn4C3)cn2)cc1 (centres unmarked),10.06,11.52
CC(=O)N1CCC2(CC1)CN(C(C)C)c1ccc(F)cc12,-23.37,-2.517
Clc1ccc(-c2c[nH]c([C@@H]3COCCN3)n2)cc1,0.3468 and 7.894,2.404
CS(=O)(=O)N1CCOCC12CCN(Cc1ccoc1)CC2,20.47,-3.763
Cc1nccn1C1CCCN(C(=O)c2ccc3nncn3c2)C1 (centres unmarked),5.9,-9.838
COc1cccc(N2Cc3nc(=O)n(C(C)C)n3C2=O)c1,60.22,5.598
Cc1cc(C)cc(OCn2ccc(C(=O)O)n2)c1,-6.049,3.461
Cc1ccc(-c2snnc2C(=O)NCCCO)cc1,-18.28,-19.2
CCc1[nH]nc(NC(=O)c2cc[nH]n2)c1C,8.575,13.51
Cc1cccc(OC2CCN(C(=O)Cn3ccc4ccccc43)CC2)n1,31.37 and 47.77,26.44
N#Cc1cnn(-c2ccc(C(=O)N(C3CCCCC3)C3CC3)cc2)c1N,8.476,5.574
[H][C@@]12CCN(CC3CCC3)C[C@]1(C(=O)N1CCOCC1)CCO2,14.38,-6.975
O=C(O)C(F)(F)F.O=C(O)C(F)(F)F.[H][C@@]12CCCO[C@]1([H])[C@H](N(C)Cc1ccco1)CN2Cc1cnn(C)c1,-42.6,-12.4 and -26.41
CCn1cc(CN2CCCN(C(=O)c3cccn3C)CC2)cn1,37.65,-3.961
O=C(NC[C@H]1OC[C@@H](NC2CCOCC2)[C@@H]1O)Nc1ccccc1,-24.79 and -4.8,-22.2
O=C(O)C(F)(F)F.O=C(O)C(F)(F)F.O=C(O)C(F)(F)F.c1ccc(CN2CCc3ncnc(N4CCCC4)c3CC2)nc1,-0.5249 and -26.89,-0.07772
CCCc1n[nH]c(C2CN(C(=O)c3ccnc(C4CC4)n3)CCO2)n1 (centres unmarked),-0.4151,-15.12
CCc1cc(N[C@@H]2CC[C@@H](N)C2)n2nc(C)c(C)c2n1,32.13,14.86
[H][C@@]12CCCO[C@]1([H])[C@@H](OCC1CCOCC1)CN2C(=O)c1ccc(C)o1,-23.21,-31.12
CCn1cc(-c2cc(C(F)F)n3nc(CC(=O)O)nc3n2)cn1,48.03,17.2
[H][C@]12CC[C@]([H])(CN(S(=O)(=O)N(C)CC)C1)N(Cc1cscn1)C2=O,-39.23,-13.33
O=C(O)C(F)(F)F.[H][C@@]12CN(Cc3ccc(OC)cc3)C[C@]1([H])C(=O)N(c1ccsc1)C2,25.27,3.671
COc1ccc(CNC(C)c2ccc(Cl)c(Cl)c2)c(OC)c1OC (centres unmarked),39.38,24.52 and 37.08
O=C(Cc1ccsc1)N1CCCC(c2n[nH]c3nccnc23)C1 (centres unmarked),-16.58,-18.93
O=C(NCC1CCCO1)C1CCN(Cc2nc(C3CC3)no2)CC1 (centres unmarked),1.489,-9.525
CC(c1ccon1)N(C)S(=O)(=O)NCc1ccccc1 (centres unmarked),-1.431,20.84
[H][C@]12CC[C@]([H])(CN(C(=O)N(C)C)C1)N(C(=O)c1ccccc1SC)C2,-32.41,15.48
Cc1cc(C(=O)NCCN2CCCCC2C)nn1C(C)(C)C (centres unmarked),-8.13,-2.6
O=C(CCCN1CCOC1=O)Nc1cnn(-c2ccccc2Cl)c1,-66.74 and 4.917,-17.6
[H][C@]12CCN(C(=O)Cc3ccc(OC)cc3)CC[C@@]1([H])S(=O)(=O)N(C)C2,28.67,11.57
CC(=O)N1CCC(c2ccnc(Nc3cncnc3)n2)C1 (centres unmarked),-2.178,-11.4
Cn1cc(C(=O)N2CCCN(C3Cc4ccccc4C3)CC2)cn1,12.57,3.666
CC(C)=CCN1CC2(CCN(Cc3ncc[nH]3)CC2)CC1=O,-18.03,-44.28
O=C(CSc1ccc2c(c1)OCCO2)NS(=O)(=O)c1ccccc1Br,7.094,-10.67
Cc1cc(O)c(OCC(=O)/N=c2\[nH]c(C)c(C)s2)cn1,19.2,10.62
Cc1nc(CN(C)C2CCN(CC3CCOCC3)C2)no1 (centres unmarked),-40.22,0.7641
O=C(O)C(F)(F)F.[H][C@]12CCN(S(=O)(=O)c3ccc(F)cc3)C[C@@]1([H])OCCN(C)C2,-39.04 and -3.07,-18.3
Cc1nc(CN2C(=O)COC3(CCN(C(N)=O)CC3)C2C)cs1 (centres unmarked),3.48,16.89
Cc1cc(CN(C)C(=O)c2ccc(F)cc2F)no1,-15,-13.77
O=C(NCCC1CN(C2CCCC2)CCO1)c1cc(=O)[nH]c(=O)[nH]1 (centres unmarked),11.88,2.269
COc1cccc(OCCNS(=O)(=O)Cc2ccccc2)c1,8.286,-2.583
Cc1ccc(CN(C)C(=O)Cn2nc(-c3ccc(F)cc3)oc2=O)cc1,-24.09,-24.99
Cc1nccn1CCNC(=O)C1(C)CC(c2ccccc2)=NO1 (centres unmarked),16.32,-1.749
O=C1Cc2cc(NC(=O)N3CCCN(Cc4cccs4)CC3)ccc2N1,13.61,4.685
Cc1ccc(CNC(=O)c2c[nH]nc2NC(=O)COCC2CC2)cc1,-16.42,-7.619
C1CCC(CSc2nnnn2C2CC2)OC1 (centres unmarked),36.06,40.68
O=C(CCNC(=O)c1ccoc1)Nc1cc(F)cc(F)c1,-5.482,13.89

Once more, the final 6:

Cc1ccc(CN(C)C(=O)Cn2nc(-c3ccc(F)cc3)oc2=O)cc1 gave Mtb glucose medium: -24.09%; Mtb cholesterol medium: -24.99%.
Cc1nccn1CCNC(=O)C1(C)CC(c2ccccc2)=NO1 (centres unmarked) gave Mtb glucose medium: 16.32%; Mtb cholesterol medium: -1.749%.
O=C1Cc2cc(NC(=O)N3CCCN(Cc4cccs4)CC3)ccc2N1 gave Mtb glucose medium: 13.61%; Mtb cholesterol medium: 4.685%.
Cc1ccc(CNC(=O)c2c[nH]nc2NC(=O)COCC2CC2)cc1 gave Mtb glucose medium: -16.42%; Mtb cholesterol medium: -7.619%.
C1CCC(CSc2nnnn2C2CC2)OC1 (centres unmarked) gave Mtb glucose medium: 36.06%; Mtb cholesterol medium: 40.68%.
O=C(CCNC(=O)c1ccoc1)Nc1cc(F)cc(F)c1 gave Mtb glucose medium: -5.482%; Mtb cholesterol medium: 13.89%.